Measured values from PMC6175577, “BRCT domains of the DNA damage checkpoint proteins TOPBP1/Rad4 display distinct specificities for phosphopeptide ligands” (eLife, 2018).
No constants are given. Whether binding was seen depends on the method and setting.

Molecular target: T1, Mdb1 pT113 fluorescein-labelled phosphopeptide (S. pombe)
T1 sequence (peptide, fluorescein on the N-terminus; phosphothreonine at 113): GYGGVMTVPNTPQKPNLQ
Test: fluorescence polarisation; fluorescein-labelled peptide at 200 nM, increasing concentrations of recombinant protein; room temperature; 25 mM HEPES pH 7.5, 150 mM NaCl, 1 mM EDTA, 0.25 mM TCEP, 0.02% Tween-20; one site-specific binding model; both purified

binding: no binding
Substance: Rad4-BRCT1,2 with both BRCT domains mutated (S. pombe) (domain or fragment)
